Reference: patent publication US10159676B2, “Induction of tumor hypoxia for cancer therapy” (Virginia Commonwealth University, priority 2008, dated 2018)
Some entries share one result that the patent states for a list of compounds.

Assays:
[1] = in vivo; cited from earlier work
[2] = tested on: UCI101 tumor xenografts; assay: Tumor necrosis in H&E sections three days after treatment; conditions: Example 5 (FIG. 5); tirapazamine 60 mg/kg, stilbene 5c 50 mg/kg intraperitoneally; three days later

Row | SMILES | half lives [1] | tumor necrosis [2]
1 | CCN(CC)CCNC(=O)c1c(C)[nH]c(/C=C2\C(=O)Nc3ccc(F)cc32)c1C [sunitinib] | less than 24 hours | –
2 | CNC(=O)c1cc(Oc2ccc(NC(=O)Nc3ccc(Cl)c(C(F)(F)F)c3)cc2)ccn1 [sorafenib] | less than 24 hours | –
3 | Nc1n[n+]([O-])c2ccccc2[n+]1[O-] [tirapazamine, 3-amino-1,2,4-benzotriazine-1,4-di-N-oxide] | – | 10-20%
